## Results of single-concentration screens

By UniProt entry, the sequences of proteins in these tests, tags left out.
UniProt P9WPC5, whole entry: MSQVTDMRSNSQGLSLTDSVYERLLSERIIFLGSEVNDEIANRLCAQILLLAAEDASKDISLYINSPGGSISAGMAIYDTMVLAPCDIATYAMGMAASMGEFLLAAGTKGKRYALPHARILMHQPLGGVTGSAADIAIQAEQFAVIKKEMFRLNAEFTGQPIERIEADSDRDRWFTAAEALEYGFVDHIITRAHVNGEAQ
UniProt P9WPC3, whole entry partner: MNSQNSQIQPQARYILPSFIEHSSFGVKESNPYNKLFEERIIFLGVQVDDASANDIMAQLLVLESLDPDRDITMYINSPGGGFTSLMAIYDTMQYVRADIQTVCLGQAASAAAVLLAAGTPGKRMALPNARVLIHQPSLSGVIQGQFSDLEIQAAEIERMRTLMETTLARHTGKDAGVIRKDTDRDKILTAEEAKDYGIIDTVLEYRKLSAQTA
UniProt P9WNZ1, whole entry: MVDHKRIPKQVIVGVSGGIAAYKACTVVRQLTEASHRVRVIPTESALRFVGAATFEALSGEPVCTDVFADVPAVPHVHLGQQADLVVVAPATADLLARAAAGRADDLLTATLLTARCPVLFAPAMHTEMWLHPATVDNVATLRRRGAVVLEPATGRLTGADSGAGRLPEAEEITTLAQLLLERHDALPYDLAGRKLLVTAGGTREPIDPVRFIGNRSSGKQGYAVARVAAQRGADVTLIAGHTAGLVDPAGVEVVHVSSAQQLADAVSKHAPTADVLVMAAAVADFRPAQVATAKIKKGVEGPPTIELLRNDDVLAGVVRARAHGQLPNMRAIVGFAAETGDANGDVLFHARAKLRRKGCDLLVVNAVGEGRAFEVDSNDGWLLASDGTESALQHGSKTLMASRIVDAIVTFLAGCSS

Data taken from ChEMBL document CHEMBL3988442, “University of Dundee, Small-Polar-MMV Screening Library” (2021).

Results are given as percent effect.
The record does not define 0% and 100%; most values in the screen are far below 50% and negative numbers occur (in some assays of this library far below -100).
Compounds were drawn at random from those tested, without regard to their results.
Two or more numbers in one place are separate tests of the same structure; such repeats can differ widely.
A dash means the value is not listed here; it may have been measured.

A: 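Assay of Toxoplasma gondii numbers, read through their beta-galactosidase reporter with a colour substrate. Compounds at 10 µM. The record gives no direction; the compounds picked for IC50 retests had high values, so higher reads as fewer parasites. Size under these conditions: about 67,000 compounds, about 260 of them at 50% or above in at least one test.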
B: 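Protease assay of ClpP1P2, read by the AMC dye that it sets free. Target: ClpP1P2, Mycobacterium tuberculosis (UniProt P9WPC5 and UniProt P9WPC3). Tested at 50 µM. Direction is inferred from only a few compounds that gave an IC50; most scored high, so higher reads as stronger inhibition. Most other retested compounds had strongly negative values. Size under these conditions: about 69,000 compounds, about 10 of them at 50% or above in at least one test.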
C: 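Whole-parasite assay of Trypanosoma brucei over 72 hours; the read-out is not stated. Tested at 30 µM. Higher reads as stronger inhibition (inferred: compounds with an IC50 in retests scored well above the rest). Values scatter widely below zero; nearly all retest evidence comes from the higher of the two concentrations used. About 64,000 compounds were tested under these conditions; 1.5% (about 940) showed 50% or more at least once.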
D: 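Coenzyme A biosynthesis protein CoaBC, Mycobacterium tuberculosis (UniProt P9WNZ1). Enzyme assay of CoaBC with a phosphate dye (Biomol Green) read at 650 nm. Compounds at 30 µM. Higher reads as stronger inhibition, judged from the few compounds that gave an IC50. Most strong results did not repeat in a second test. Of about 67,000 compounds tested this way, about 40 (0.06%) reached 50% or more in at least one test.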

Compound | A | B | C | D
NC(=O)CC1CCCCN1C(=O)c1ccc2cc[nH]c2c1 (centres undefined) | 3.678 | 7.017 | -102.6 | 4.634
Cc1ccc(C(=O)N2Cc3c(CN4CCCCC4)nn(C)c3C2)cc1C | - | 10.39 | - | 1.416
CCN(CC1COc2ccccc2O1)C(=O)C1=NN(C)C(=O)CC1 (centres undefined) | 7.843 | 7.935 | -58.57 | -4.512
O=C1CC(c2cccs2)c2sc(C(=O)O)c(-c3ccccc3)c2N1 (centres undefined) | -8.763 | -13.34 | -5.343 | 2.043
CC(=O)N1CCC2(CC1)CN(C)CC[C@H]2C(F)(F)F.Cl | 0.4787 | - | -70.38 | -
Cn1nnc2cc(C(=O)N3CCC(Nc4cccnn4)CC3)ccc21 | 8.157 | -7.794 | -6.438 | 2.452
COCCN(C)C(=O)c1ccccc1-n1cccn1 | 12.19 | -1.34 | -74.55 | 4.121
COc1ccc(-n2cccn2)cc1S(=O)(=O)N1C[C@H](C2CC2)[C@@H](N)C1 | -16.94 | -2.435 | 27.88 | -16.67
CCN(CC)CCC(=O)N1CCc2c(nc(N(C)C)nc2N(C)C)C1 | - | -12.35 | -7.209 | 6.027
COc1cc(N2C[C@H]3OCC[C@H]3[C@H](C(=O)N3CCCC3)C2)ncn1 | - | -12.53 | - | -0.3699
CNS(=O)(=O)c1cc(C(=O)NC2CCOc3ccccc32)cc(C)c1C (centres undefined) | 0.6536 | -4.759 | -36.42 | 2.294
COc1cccc(CN2CCCC3(CCN(C(=O)[C@H]4CCCO4)C3)C2)c1 (some centres undefined) | 4.329 | 7.028 | 7.518 | -0.2418
CC1CCN(C(=O)C2CCN(c3ccc(Cl)cc3C#N)CC2)CC1 | -25.91 | -57.71 | 28.97 | 0.1122
Cc1ccc2cc(C3(O)CCN(C(=O)CN4CCCC4)CC3)ccc2n1 | 1.047 | -10.16 | -21.78 | 0
O=C(c1ccccc1)N1C[C@@H]2CC[C@H](C1)N(Cc1cc(F)ccc1Cl)C2 | - | -15.33 | - | 4.463
CNC(=O)[C@@H](c1ccccc1)N1CCC[C@H]1C(=O)NCc1ccccn1.Cl.Cl | 10.94 | - | -13.84 | -
Cc1ccc(-n2nnc(CC(=O)N3CCN(C4CC4)CC3)c2C)cc1 | 34.6 | -9.991 | -12.35 | 5.584
O=C1CCCN1c1cccc(CNCc2nc(C3CC3)no2)c1 | -0.5975 | 13.4 | -12.55 | 3.924
Cc1nn(C)c(Cl)c1C1CCCN1C(=O)c1ccc(O)nc1 (centres undefined) | -38.94 | 18.76 | -20.92 | 12.5
CNC(=O)c1cccc(NC(=O)NCc2ccc(SC)cc2)c1C | 1.947 | 2.795 | -27.09 | -1.22
Cc1nnc2n1CC(CNCc1nc(-c3cccs3)no1)CC2 (centres undefined) | -10.73 | -6.792 | -4.185 | 10.58 & 22.93
Cc1ccc(CN2CCOC3(CCN(CC4CCOC4)CC3)C2)cc1 (centres undefined) | - | -0.2753 | - | 0.4938
Cc1ccoc1C(=O)N1CC[C@H]2O[C@@H](C)C[C@H]2C1 | - | 6.136 | - | 0.6345
O=C(NCCC1=CCCCC1)NCc1nnc2n1CCC2 | -11.74 | 3.229 | -19.58 | 5.175
Cc1n[nH]c(C2CN(CCNC3CCCCC3)CCO2)n1 (centres undefined) | -25.19 | 10.87 | -36.16 | -12.53
O=C(Cc1ccc2c(c1)OCCO2)NCCc1nnc2n1CCC2 | -1.551 | 19.31 | -15.53 | -1.779
O=C1CC(NS(=O)(=O)c2ccc3ccccc3c2)CN1 (centres undefined) | -4.79 | -4.44 | -15.89 | 1.083
CCOc1ccccc1CNC(=O)N1CCC(Cc2cnn(C)c2)C1 (centres undefined) | 19.24 | -24.87 | - | 4.092
Cc1ccccc1CN(C)C(=O)c1cc(C2CCCN2C)ccn1 (centres undefined) | 9.179 | -14.76 | -10.14 | -2.107
CCc1ccc(NC(C(N)=O)c2ccc(F)cc2)cc1 (centres undefined) | 9.207 | -13.67 | -26.37 | 0.9346
COCc1cnc2n1CCN(C(=O)c1cc3cc(Cl)ccc3o1)C2C (centres undefined) | 13.47 | -2.76 | -50.72 | -0.4926
COCCn1ccc(NC(=O)Nc2ccccc2)n1 | 2.694 | -8.655 | 46.2 | 10.74